{"source": "PubChem BioAssay AID1259308 (NCATS, 2017)", "screen": "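Candidate targets for better recombinant protein yield in mammalian cells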 (primary screen)", "system": "human HEK293 embryonic kidney cells stably expressing firefly luciferase (HEK-CMV-Luc2-Hygro)", "knock-down reagent": "single siRNA against human genes, 0.8 pmol siRNA per well", "duration": "72 h", "detection": "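Reporter luminescence and viable-cell signal on separate replicate plates, given as percent of non-targeting control and median/MAD z-scores, plus per-cell luciferase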", "direction": "total luciferase, z-score: higher = more reporter protein produced", "hit rule": "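An siRNA counts as active if its total luciferase robust z-score exceeds 3; genes with two or more such siRNAs out of three were retested with fresh siRNAs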", "meaning of the calls": "active = raised luciferase; inactive = no rise", "note": "Here is a random part of about 59,000 reagents. Over the whole deposit, about 1,510 (2.6%) are marked active. 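Calls use total luciferase alone and ignore viability, so some active siRNAs may act by altering cell number.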 A number with no mark means an inactive call. The numbers tell different reagents against one gene apart. Further read-outs or replicates are left out here. Reagent sequences are not shown."}
{"Gene": "TAS2R3", "reagent": 1, "total luciferase, z-score": -0.644}
{"Gene": "TAS2R3", "reagent": 2, "total luciferase, z-score": 1.3}
{"Gene": "TAS2R3", "reagent": 3, "total luciferase, z-score": -0.387}
{"Gene": "NCOA7", "reagent": 1, "total luciferase, z-score": 0.11}
{"Gene": "NCOA7", "reagent": 2, "total luciferase, z-score": 1.17}
{"Gene": "NCOA7", "reagent": 3, "total luciferase, z-score": -0.422}
{"Gene": "NPL", "reagent": 1, "total luciferase, z-score": -0.0241}
{"Gene": "NPL", "reagent": 2, "total luciferase, z-score": -1.6}
{"Gene": "NPL", "reagent": 3, "total luciferase, z-score": -0.23}
{"Gene": "SLC5A11", "reagent": 1, "total luciferase, z-score": 1.94}
{"Gene": "SLC5A11", "reagent": 2, "total luciferase, z-score": -0.951}
{"Gene": "SLC5A11", "reagent": 3, "total luciferase, z-score": -0.227}
{"Gene": "TCF12-DT", "reagent": 1, "total luciferase, z-score": 0.854}
{"Gene": "TCF12-DT", "reagent": 2, "total luciferase, z-score": -0.52}
{"Gene": "TCF12-DT", "reagent": 3, "total luciferase, z-score": -0.88}
{"Gene": "TARS3", "reagent": 1, "total luciferase, z-score": 2.19}
{"Gene": "TARS3", "reagent": 2, "total luciferase, z-score": -0.516}
{"Gene": "TARS3", "reagent": 3, "total luciferase, z-score": -0.0888}
{"Gene": "MAP2", "reagent": 1, "total luciferase, z-score": -0.00818}
{"Gene": "MAP2", "reagent": 2, "total luciferase, z-score": 0.909}
{"Gene": "MAP2", "reagent": 3, "total luciferase, z-score": 0.0102}
{"Gene": "FAM162A", "reagent": 1, "total luciferase, z-score": -0.244}
{"Gene": "FAM162A", "reagent": 2, "total luciferase, z-score": -0.215}
{"Gene": "FAM162A", "reagent": 3, "total luciferase, z-score": -0.107}
{"Gene": "PADI6", "reagent": 1, "total luciferase, z-score": 0.486}
{"Gene": "PADI6", "reagent": 2, "total luciferase, z-score": -0.0648}
{"Gene": "PADI6", "reagent": 3, "total luciferase, z-score": 2.5}
{"Gene": "CRLS1", "reagent": 1, "total luciferase, z-score": 0.372}
{"Gene": "CRLS1", "reagent": 2, "total luciferase, z-score": -0.709}
{"Gene": "CRLS1", "reagent": 3, "total luciferase, z-score": 1.43}
{"Gene": "USO1", "reagent": 1, "total luciferase, z-score": 0.276}
{"Gene": "USO1", "reagent": 2, "total luciferase, z-score": -1.17}
{"Gene": "USO1", "reagent": 3, "total luciferase, z-score": 0.229}
